Values quoted from earlier work as cited in patent publication US10537567B2, “Kinase inhibitors for treatment of disease” (BioAxone BioSciences, Inc., priority 2017, dated 2020).
Some of these results come from one statement about several compounds together.

Conditions: clinical studies; cited from earlier work

With `Cc1ccc(C(=O)OCc2ccc([C@@H](CN)C(=O)Nc3ccc4cnccc4c3)cc2)c(C)c1` [Netarsudil] as the molecule, how does the “Treated patients with hyperemia” value read?
The value was over 50%.

Which “Treated patients with hyperemia” value does the source give for `C[C@H]1CNCCCN1S(=O)(=O)c1cccc2cncc(F)c12` [Ripasudil] here?
Its value is over 50%.
